These are yes or no findings as the source states them, for the method shown. In cells and extracts the contact can be indirect. Some binding calls cover weakened binding; strength is not graded here. For some assays here: Sequences can lack the tags named with a protein.

By UniProt entry, the sequences of proteins in these tests, tags left out.
UniProt Q07812: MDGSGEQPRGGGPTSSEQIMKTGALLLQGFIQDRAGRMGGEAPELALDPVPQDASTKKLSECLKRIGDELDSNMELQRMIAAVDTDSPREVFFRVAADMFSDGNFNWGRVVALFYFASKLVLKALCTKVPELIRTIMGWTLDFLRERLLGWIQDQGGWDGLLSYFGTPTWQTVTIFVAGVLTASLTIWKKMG

Assay [1] concerns the target human Bax (human) (UniProt Q07812). As to the kind of experiment: competition in co-immunoprecipitation of Bax and Ku70, HEK293T lysates.
The target is the same in assay [2]. Kind of assay: competition in co-immunoprecipitation of Bax and Ku70, HEK293T CHAPS lysates.
Assay [3] shares this target. Kind of assay: streptavidin bead pull-down from HEK293T CHAPS lysates, Western blot of Bax. (In western blotting, separated proteins are transferred to a membrane and probed.)

As for VPMLK [VPMLK (V5; SEQ ID NO: 1) peptide], the binding entry with human Bax (human) [1] and in the assay with human Bax (human) [2] was “binds” throughout.

For PMLKE [PMLKE (P5; SEQ ID NO: 2) peptide], the binding result with human Bax (human) [1] and in the assay with human Bax (human) [2] was “binds” throughout. For the molecule VPMLK (biotin-labeled, printed as biotin-VPMLK) [Biotin-labeled BIP (biotin-VPMLK; SEQ ID NO: 1)], in the assay with human Bax (human) [3], the binding result is recorded as “binds”.
